System: root epidermal cells, endomembrane markers
Experiment: Subcellular localization by confocal microscopy
Type: cell-based, Arabidopsis
Source text: proPLS::PLS:GFP comprises a 1.5-kb PLS promoter sequence ([Casson et al., 2002]) fused to the PLS open reading frame in pMDC107 (obtained from Prof. P.J. Hussey, Durham University) as a C-terminal GFP translational fusion. The PLS ORF with its 1.5-kb promoter was amplified from the TOPO 2.1 vector, which contained the PLS gene sequence with promoter ([Casson et al., 2002]); the primers used for cloning are listed in supplemental Table 9. pls mutant plants were transformed using the method of [Clough and Bent (1998)]. proPLS::GFP plants were generated using the 1.5-kb PLS promoter ([Casson et al., 2002]) fused to GFP in a wild-type background. p35S::GFP seedlings were obtained from Dr. Piers Hemsley, Durham University. […] Seedlings were scanned to create a digital image, and root lengths of the seedlings were measured using ImageJ. […]
CSLM images for propidium iodide and GFP were obtained using a Leica SP5 TCS confocal microscope as described previously ([Rowe et al., 2016]). proPLS::PLS:GFP, proPLS::GFP, and pro35S::GFP seedlings were grown for 7 days on Phytagel ½ MS10 medium before ∼25 mm of the root tip was removed and mounted in dH2O prior to imaging. […] For standard photomultiplier tubes, a laser power of 21% and a smart gain of 800–1000 mV were used, depending on the intensity of the fluorescence. […]

PLS:GFP: fusion protein of PLS with C-terminal GFP (MKPRLCFNFRRRSISPCYISISYLLVAKLFKLFKIH; left off: GFP, C-terminal, kept)
nuclear and cytoplasmic localization (proPLS::PLS:GFP plants): appeared to localize to the nucleus and cytoplasm | localization to Golgi (trans-Golgi ST1 mCherry marker): did not localize to the Golgi
